Measurements taken from US20250134847A1, “COMBINATION THERAPIES” (QBIOTICS PTY LTD, priority 2022, published 2025).
Some of these results come from one statement about several compounds together.

Test system: A431 cells
Details: Compound 1 with irradiation

## C/C=C(\C)C(=O)O[C@@H]1[C@@H](C)[C@@]2(O)[C@H]([C@@H]3C(C)(C)[C@]13OC(=O)[C@@H](C)CC)[C@@H]1O[C@]1(CO)[C@@H](O)[C@]1(O)C(=O)C(C)=C[C@H]12 [Compound 1, 12-tigloyl-13-(2-methylbutanoyl)-6,7-epoxy-4,5,9,12,13,20-hexahydroxy-1-tiglien-3-one]
  combination indices, all data points: < 1
